# This is one part of the list.
# B1: BIp1-His (Cryptococcus neoformans) (protein)
# chain: MFTKIFVALFAATAVLSAPVESAEKRITHTGRATFYSPSVGIGACGWQNTDEELVVALNAPQYALNADHNCGQSVRITNEQNGNQEIAKVVDLCPGCNDGDLDMSPALFGALNNNDFDQGVFPISWNFLPRDDTSSSN
# Tests used:
# Experiment in all cases: glycan array binding signal (z-score within array); higher = stronger binding
# Details in all cases: glycan notation: IUPAC condensed, linker removed
# [1] = target: GlcNAc(a1-6)Gal(b1-4)GlcNAc
# How it was run: (§1)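 Glycan array data were curated from 3228 arrays in the Consortium for Functional Glycomics database and kept only where the protein sequence was available. Glycan names were converted to IUPAC-condensed notation, and columns mapping to the same glycan were averaged. The binding signal is a within-array Z-score, averaged across arrays of the same protein sequence at different concentrations or buffers and across linkers. Negative Z-scores can be read as non-binding.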
# [2] = target: GlcNAc(b1-2)Gal(b1-3)GalNAc
# How it was run: as §1
# [3] = target: GlcNAc(b1-2)Man(a1-3)[GlcNAc(b1-2)Man(a1-6)]Man(b1-4)GlcNAc(b1-4)GlcNAc
# How it was run: as §1
# [4] = target: GlcNAc(b1-2)Man(a1-3)[GlcNAc(b1-2)Man(a1-6)]Man(b1-4)GlcNAc(b1-4)[Fuc(a1-6)]GlcNAc
# How it was run: as §1
# [5] = target: GlcNAc(b1-2)Man(a1-3)[GlcNAc(b1-4)][GlcNAc(b1-2)Man(a1-6)]Man(b1-4)GlcNAc(b1-4)GlcNAc
# How it was run: as §1
# [6] = target: GlcNAc(b1-2)Man(a1-3)[GlcNAc(b1-4)][GlcNAc(b1-2)Man(a1-6)]Man(b1-4)GlcNAc(b1-4)[Fuc(a1-6)]GlcNAc
# How it was run: as §1
# [7] = target: GlcNAc(b1-2)[GlcNAc(b1-4)]Man(a1-3)[GlcNAc(b1-2)Man(a1-6)]Man(b1-4)GlcNAc(b1-4)GlcNAc
# How it was run: as §1
# [8] = target: GlcNAc(b1-2)[GlcNAc(b1-4)]Man(a1-3)[GlcNAc(b1-4)][GlcNAc(b1-2)Man(a1-6)]Man(b1-4)GlcNAc(b1-4)GlcNAc
# How it was run: as §1
# [9] = target: GlcNAc(b1-2)[GlcNAc(b1-4)]Man(a1-3)[GlcNAc(b1-4)][GlcNAc(b1-2)[GlcNAc(b1-6)]Man(a1-6)]Man(b1-4)GlcNAc(b1-4)GlcNAc
# How it was run: as §1
# [10] = target: GlcNAc(b1-2)[GlcNAc(b1-4)]Man(a1-3)[GlcNAc(b1-4)][GlcNAc(b1-2)[GlcNAc(b1-6)]Man(a1-6)]Man(b1-4)GlcNAc(b1-4)[Fuc(a1-6)]GlcNAc
# How it was run: as §1
# [11] = target: GlcNAc(b1-2)[GlcNAc(b1-6)]Man(a1-6)[GlcNAc(b1-2)Man(a1-3)]Man(b1-4)GlcNAc(b1-4)GlcNAc
# How it was run: as §1
# [12] = target: GlcNAc(b1-2)[GlcNAc(b1-6)]Man(a1-6)[GlcNAc(b1-2)Man(a1-3)]Man(b1-4)GlcNAc(b1-4)[Fuc(a1-6)]GlcNAc
# How it was run: as §1
# [13] = target: GlcNAc(b1-2)[GlcNAc(b1-6)]Man(a1-6)[GlcNAc(b1-4)][GlcNAc(b1-2)Man(a1-3)]Man(b1-4)GlcNAc(b1-4)GlcNAc
# How it was run: as §1
# GlcNAc(b1-3)Fuc = target: GlcNAc(b1-3)Fuc
# How it was run: as §1
# GlcNAc(b1-3)Gal = target: GlcNAc(b1-3)Gal
# How it was run: as §1
# [14] = target: GlcNAc(b1-3)Gal(b1-3)GalNAc
# How it was run: as §1
# GlcNAc(b1-3)Gal(b1-4)Glc = target: GlcNAc(b1-3)Gal(b1-4)Glc
# How it was run: as §1
# [15] = target: GlcNAc(b1-3)Gal(b1-4)GlcNAc
# How it was run: as §1
# [16] = target: GlcNAc(b1-3)Gal(b1-4)GlcNAc(b1-2)Man(a1-3)[GlcNAc(b1-3)Gal(b1-4)GlcNAc(b1-2)Man(a1-6)]Man(b1-4)GlcNAc(b1-4)GlcNAc
# How it was run: as §1
# [17] = target: GlcNAc(b1-3)Gal(b1-4)GlcNAc(b1-2)Man(a1-3)[GlcNAc(b1-3)Gal(b1-4)GlcNAc(b1-2)Man(a1-6)]Man(b1-4)GlcNAc(b1-4)[Fuc(a1-6)]GlcNAc
# How it was run: as §1
# [18] = target: GlcNAc(b1-3)Gal(b1-4)GlcNAc(b1-2)[GlcNAc(b1-3)Gal(b1-4)GlcNAc(b1-6)]Man(a1-6)[GlcNAc(b1-3)Gal(b1-4)GlcNAc(b1-2)Man(a1-3)]Man(b1-4)GlcNAc(b1-4)GlcNAc
# How it was run: as §1
# [19] = target: GlcNAc(b1-3)Gal(b1-4)GlcNAc(b1-3)Gal(b1-4)GlcNAc
# How it was run: as §1
# [20] = target: GlcNAc(b1-3)Gal(b1-4)GlcNAc(b1-3)Gal(b1-4)GlcNAc(b1-2)Man(a1-3)[GlcNAc(b1-3)Gal(b1-4)GlcNAc(b1-3)Gal(b1-4)GlcNAc(b1-2)Man(a1-6)]Man(b1-4)GlcNAc(b1-4)GlcNAc
# How it was run: as §1
# [21] = target: GlcNAc(b1-3)Gal(b1-4)GlcNAc(b1-3)Gal(b1-4)GlcNAc(b1-2)Man(a1-3)[GlcNAc(b1-3)Gal(b1-4)GlcNAc(b1-3)Gal(b1-4)GlcNAc(b1-2)Man(a1-6)]Man(b1-4)GlcNAc(b1-4)[Fuc(a1-6)]GlcNAc
# How it was run: as §1
# [22] = target: GlcNAc(b1-3)Gal(b1-4)GlcNAc(b1-3)Gal(b1-4)GlcNAc(b1-2)[GlcNAc(b1-3)Gal(b1-4)GlcNAc(b1-3)Gal(b1-4)GlcNAc(b1-6)]Man(a1-6)[GlcNAc(b1-3)Gal(b1-4)GlcNAc(b1-3)Gal(b1-4)GlcNAc(b1-2)Man(a1-3)]Man(b1-4)GlcNAc(b1-4)[Fuc(a1-6)]GlcNAc
# How it was run: as §1
# [23] = target: GlcNAc(b1-3)Gal(b1-4)GlcNAc(b1-3)Gal(b1-4)GlcNAc(b1-3)Gal(b1-4)GlcNAc(b1-2)Man(a1-3)[GlcNAc(b1-3)Gal(b1-4)GlcNAc(b1-3)Gal(b1-4)GlcNAc(b1-3)Gal(b1-4)GlcNAc(b1-2)Man(a1-6)]Man(b1-4)GlcNAc(b1-4)GlcNAc
# How it was run: as §1
# [24] = target: GlcNAc(b1-3)Gal(b1-4)GlcNAc(b1-3)Gal(b1-4)GlcNAc(b1-3)Gal(b1-4)GlcNAc(b1-2)Man(a1-3)[GlcNAc(b1-3)Gal(b1-4)GlcNAc(b1-3)Gal(b1-4)GlcNAc(b1-3)Gal(b1-4)GlcNAc(b1-2)Man(a1-6)]Man(b1-4)GlcNAc(b1-4)[Fuc(a1-6)]GlcNAc
# How it was run: as §1
# [25] = target: GlcNAc(b1-3)Gal(b1-4)GlcNAc(b1-3)Gal(b1-4)GlcNAc(b1-3)Gal(b1-4)GlcNAc(b1-2)[GlcNAc(b1-3)Gal(b1-4)GlcNAc(b1-3)Gal(b1-4)GlcNAc(b1-3)Gal(b1-4)GlcNAc(b1-6)]Man(a1-6)[GlcNAc(b1-3)Gal(b1-4)GlcNAc(b1-3)Gal(b1-4)GlcNAc(b1-3)Gal(b1-4)GlcNAc(b1-2)Man(a1-3)]Man(b1-4)GlcNAc(b1-4)[Fuc(a1-6)]GlcNAc
# How it was run: as §1
# [26] = target: GlcNAc(b1-3)Gal(b1-4)GlcNAc(b1-3)Gal(b1-4)GlcNAc(b1-3)Gal(b1-4)GlcNAc(b1-3)Gal(b1-4)GlcNAc(b1-2)Man(a1-3)[GlcNAc(b1-3)Gal(b1-4)GlcNAc(b1-3)Gal(b1-4)GlcNAc(b1-3)Gal(b1-4)GlcNAc(b1-3)Gal(b1-4)GlcNAc(b1-2)Man(a1-6)]Man(b1-4)GlcNAc(b1-4)GlcNAc
# How it was run: as §1
# [27] = target: GlcNAc(b1-3)Gal(b1-4)GlcNAc(b1-3)Gal(b1-4)GlcNAc(b1-3)Gal(b1-4)GlcNAc(b1-3)Gal(b1-4)GlcNAc(b1-2)Man(a1-3)[GlcNAc(b1-3)Gal(b1-4)GlcNAc(b1-3)Gal(b1-4)GlcNAc(b1-3)Gal(b1-4)GlcNAc(b1-3)Gal(b1-4)GlcNAc(b1-2)Man(a1-6)]Man(b1-4)GlcNAc(b1-4)[Fuc(a1-6)]GlcNAc
# How it was run: as §1
# [28] = target: GlcNAc(b1-3)Gal(b1-4)GlcNAc(b1-3)Gal(b1-4)GlcNAc(b1-3)Gal(b1-4)GlcNAc(b1-3)Gal(b1-4)GlcNAc(b1-2)[GlcNAc(b1-3)Gal(b1-4)GlcNAc(b1-3)Gal(b1-4)GlcNAc(b1-3)Gal(b1-4)GlcNAc(b1-3)Gal(b1-4)GlcNAc(b1-6)]Man(a1-6)[GlcNAc(b1-3)Gal(b1-4)GlcNAc(b1-3)Gal(b1-4)GlcNAc(b1-3)Gal(b1-4)GlcNAc(b1-3)Gal(b1-4)GlcNAc(b1-2)Man(a1-3)]Man(b1-4)GlcNAc(b1-4)[Fuc(a1-6)]GlcNAc
# How it was run: as §1
# [29] = target: GlcNAc(b1-3)Gal(b1-4)GlcNAc(b1-3)Gal(b1-4)GlcNAc(b1-3)GalNAc
# How it was run: as §1
# [30] = target: GlcNAc(b1-3)Gal(b1-4)GlcNAc(b1-3)GalNAc
# How it was run: as §1
# [31] = target: GlcNAc(b1-3)Gal(b1-4)GlcNAc(b1-3)[GlcNAc(b1-3)Gal(b1-4)GlcNAc(b1-3)]GalNAc
# How it was run: as §1
# [32] = target: GlcNAc(b1-3)Gal(b1-4)GlcNAc(b1-6)[Gal(b1-3)]GalNAc
# How it was run: as §1
# [33] = target: GlcNAc(b1-3)Gal(b1-4)GlcNAc(b1-6)[GlcNAc(b1-3)Gal(b1-3)]GalNAc
# How it was run: as §1
# [34] = target: GlcNAc(b1-3)Gal(b1-4)GlcNAc(b1-6)[GlcNAc(b1-3)]Gal(b1-4)GlcNAc
# How it was run: as §1
# GlcNAc(b1-3)GalNAc = target: GlcNAc(b1-3)GalNAc
# How it was run: as §1
# GlcNAc(b1-3)Man = target: GlcNAc(b1-3)Man
# How it was run: as §1
# [35] = target: GlcNAc(b1-3)[GlcNAc(b1-4)][GlcNAc(b1-6)]GlcNAc
# How it was run: as §1
# [36] = target: GlcNAc(b1-3)[GlcNAc(b1-6)]Gal(b1-4)GlcNAc
# How it was run: as §1
# [37] = target: GlcNAc(b1-3)[GlcNAc(b1-6)]GalNAc
# How it was run: as §1
# [38] = target: GlcNAc(b1-4)Gal(b1-4)GlcNAc
# How it was run: as §1
# GlcNAc(b1-4)GlcNAc = target: GlcNAc(b1-4)GlcNAc
# How it was run: as §1
# [39] = target: GlcNAc(b1-4)GlcNAc(b1-4)GlcNAc
# How it was run: as §1
binder,measurement,setting,value
B1,glycan array binding signal (z-score),[1],-0.844
same,glycan array binding signal (z-score),[2],0.228
same,glycan array binding signal (z-score),[3],-0.765
same,glycan array binding signal (z-score),[4],0.606
same,glycan array binding signal (z-score),[5],0.434
same,glycan array binding signal (z-score),[6],0.086
same,glycan array binding signal (z-score),[7],-0.256
same,glycan array binding signal (z-score),[8],0.058
same,glycan array binding signal (z-score),[9],-0.2
same,glycan array binding signal (z-score),[10],-0.309
same,glycan array binding signal (z-score),[11],1.22
same,glycan array binding signal (z-score),[12],0.324
same,glycan array binding signal (z-score),[13],-0.11
same,glycan array binding signal (z-score),GlcNAc(b1-3)Fuc,0.977
same,glycan array binding signal (z-score),GlcNAc(b1-3)Gal,-0.699
same,glycan array binding signal (z-score),[14],0.752
same,glycan array binding signal (z-score),GlcNAc(b1-3)Gal(b1-4)Glc,-0.658
same,glycan array binding signal (z-score),[15],-0.471
same,glycan array binding signal (z-score),[16],-0.301
same,glycan array binding signal (z-score),[17],0.929
same,glycan array binding signal (z-score),[18],1.14
same,glycan array binding signal (z-score),[19],0.094
same,glycan array binding signal (z-score),[20],1.87
same,glycan array binding signal (z-score),[21],1.5
same,glycan array binding signal (z-score),[22],2.23
same,glycan array binding signal (z-score),[23],2.51
same,glycan array binding signal (z-score),[24],3.44
same,glycan array binding signal (z-score),[25],1.41
same,glycan array binding signal (z-score),[26],1.13
same,glycan array binding signal (z-score),[27],1.04
same,glycan array binding signal (z-score),[28],0.882
same,glycan array binding signal (z-score),[29],0.503
same,glycan array binding signal (z-score),[30],0.405
same,glycan array binding signal (z-score),[31],-0.341
same,glycan array binding signal (z-score),[32],-0.259
same,glycan array binding signal (z-score),[33],-0.564
same,glycan array binding signal (z-score),[34],-0.36
same,glycan array binding signal (z-score),GlcNAc(b1-3)GalNAc,-0.45
same,glycan array binding signal (z-score),GlcNAc(b1-3)Man,0.039
same,glycan array binding signal (z-score),[35],-0.27
same,glycan array binding signal (z-score),[36],0.278
same,glycan array binding signal (z-score),[37],-0.522
same,glycan array binding signal (z-score),[38],0.256
same,glycan array binding signal (z-score),GlcNAc(b1-4)GlcNAc,-0.2
same,glycan array binding signal (z-score),[39],-0.349

# Given tab-delimited: entries from further up
binder	measurement	setting	value
B1	glycan array binding signal (z-score)	[9]	-0.2
same	glycan array binding signal (z-score)	GlcNAc(b1-3)Gal(b1-4)Glc	-0.658
same	glycan array binding signal (z-score)	[24]	3.44
same	glycan array binding signal (z-score)	[35]	-0.27
